Among the data in PMC6565675, “Cryo-electron microscopy structure of an archaeal ribonuclease P holoenzyme” (Nature Communications, 2019) are binding values, retold here.

Results are given in words; binding and its absence hold for the method and conditions named. Some results given as binding are weak or reduced against the parent protein; the word gives no strength.

This experiment addresses T1, Methanocaldococcus jannaschii RNase P protein subunit Rpp30 (Methanocaldococcus jannaschii) (UniProt Q58539).
T1 sequence: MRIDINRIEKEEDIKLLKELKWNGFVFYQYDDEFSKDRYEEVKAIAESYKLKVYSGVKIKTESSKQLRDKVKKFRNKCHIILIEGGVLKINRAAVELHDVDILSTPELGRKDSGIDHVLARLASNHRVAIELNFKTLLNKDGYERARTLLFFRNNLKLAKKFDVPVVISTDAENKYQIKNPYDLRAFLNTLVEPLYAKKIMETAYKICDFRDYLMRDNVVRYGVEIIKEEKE
Kind of experiment: cryo-EM structure; MjaRNase P holoenzyme reconstituted in vitro from RPR and the purified protein components, purified by SEC; alone (4.6 Å) and with E. coli tRNA^Tyr (4.3 Å); buffer exchanged on the grid to 40 mM Hepes, pH 7.5, 200 mM NaCl; C2 symmetry applied; both purified. A general note: In gel filtration, larger molecules generally elute earlier.

B1: Methanocaldococcus jannaschii RNase P protein subunit Pop5 (protein, UniProt Q57917 1-134)
chain: MIEMLKTLPPTLREKKRYIAFKILYDEELKEGEVVNLIRKAVLEYYGSWGTSKANPWLVYYDFPYGILRCQRDNVDYVKASLILIREFKEKPVNIICLGVSGTIRKAKIKFLGIKKPKRWFVIRRERLKAKKQK
Turning to B1, the binding entry was “binds”.
